The other results are listed elsewhere or left out. This data set is noisy: repeats of one test often differ as much as different tests do.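 HEK293T cells were given each compound shortly before transfection with a reporter in which red mCherry is followed by the SARS-CoV-2 frameshift element and then GFP in the −1 frame, so GFP appears only after frameshifting.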
Assays:
[1] = test system: SARS-CoV-2 -1 PRF reporter mCherry-FSE-GFP(-1); test: mCherry (red) intensity as percent of control; higher = higher upstream reporter expression; details: 10 µM; 24 h; HEK293T
[2] = test system: SARS-CoV-2 -1 PRF reporter mCherry-FSE-GFP(-1); test: percent effect, decrease of GFP/mCherry ratio (-1 PRF reporter) relative to controls; higher = stronger frameshift inhibition; details: 10 µM; 24 h; HEK293T

| Compound | mCherry [1] [%] | percent effect [2] [%] |
| --- | --- | --- |
| CN/C(=N\c1ccc(C2=NNC(=O)CC2C)cc1)NC#N (stereo not given) [siguazodan] | 105 | -0.505 |
| CO/N=C(\C(=O)N[C@@H]1C(=O)N2C(C(=O)[O-])=C(C[n+]3ccn4ncccc43)CS[C@H]12)c1nsc(N)n1 [cefozopran] | 104 | -2 |
| COC(=O)c1ccccc1O [Methyl salicylate] | 70.7 | -3.19 |
| CN(N=O)C(=O)N[C@@H]1[C@@H](O)[C@H](O)[C@@H](CO)O[C@@H]1O [streptozocin] | 104 | -0.304 |
| O=c1[nH]c(=O)n(C2CCCO2)cc1F (stereo not given) [tegafur] | 52.2 | -1.78 |
| COc1cc2c(cc1OC)[C@@H](Cc1cc(OC)c(OC)c(OC)c1)[N+](C)(CCCOC(=O)CC/C=C/CCC(=O)OCCC[N+]1(C)CCc3cc(OC)c(OC)cc3[C@H]1Cc1cc(OC)c(OC)c(OC)c1)CC2 (stereo not given in full) [Mivacron] | 98.3 | -1.43 |
| C=C1CC[C@H](O)C/C1=C/C=C1\CCC[C@]2(C)[C@@H]([C@H](C)/C=C/[C@H](C)C(C)C)CC[C@@H]12 [Ergocalciferol] | 116 | -0.143 |
| NC(=O)NCCN1CCN(c2cccc(C(F)(F)F)c2)CC1 [fluprazine] | 109 | -12.5 |
| O=C(NCC1CCCCN1)c1cc(OCC(F)(F)F)ccc1OCC(F)(F)F (stereo not given) [flecainide] | 94.9 | -2.51 |
| CCOC(=O)COc1ccc2c(=O)cc(-c3ccccc3)oc2c1 [efloxate] | 93.1 | 2.23 |
| CN(C(=O)CO/N=C(\c1ccccc1)c1ccc2c(c1)CN1CC(=O)NC1=N2)C1CCCCC1 [revizinone] | 104 | 2.04 |
| Cc1nnc(C(C)C)n1C1C[C@H]2CC[C@@H](C1)N2CC[C@H](NC(=O)C1CCC(F)(F)CC1)c1ccccc1 (stereo in doubt) [maraviroc] | 70.5 | -3.57 |
| CN(C)CCOC(c1ccccc1)c1ccc(Br)cc1 (stereo not given) [Bromodiphenhydramine] | 92.9 | -5.91 |
| O=C([O-])[C@H](O)[C@@H](O)[C@H](O)[C@H](O)CO.O=C([O-])[C@H](O)[C@@H](O)[C@H](O)[C@H](O)CO.[Ca+2] | 112 | -3.83 |
| CCCc1nn(C)c2c(=O)[nH]c(-c3cc(S(=O)(=O)N4CCN(C)CC4)ccc3OCC)nc12 | 136 | 11.8 |
| Cc1noc(NS(=O)(=O)c2ccc(N)cc2)c1C [sulfafurazole] | 117 | -0.692 |
| CNC(=O)[C@@H](NC(=O)[C@H](CC(C)C)[C@H](O)C(=O)NO)C(C)(C)C [marimastat] | 68.8 | -12.9 |
| CCCCCCCCCCC[C@@H](C[C@@H]1OC(=O)[C@H]1CCCCCC)OC(=O)[C@H](CC(C)C)NC=O [orlistat] | 115 | -1.5 |
| CO[C@H]1C[C@H](O[C@@H]2/C(C)=C\C[C@@H]3C[C@@H](C[C@]4(C=C[C@H](C)[C@@H](C(C)C)O4)O3)OC(=O)[C@@H]3C=C(C)[C@@H](O)[C@H]4OC/C(=C/C=C\[C@@H]2C)[C@]43O)O[C@@H](C)[C@H]1O[C@H]1C[C@@H](OC)[C@H](NC(C)=O)[C@H](C)O1 [eprinomectin] | 89.2 | -22 |
| COC(=O)C1=C(C)NC(C)=C(C(=O)OC/C=C/c2ccccc2)C1c1cccc([N+](=O)[O-])c1 (stereo not given) [pranidipine] | 110 | -0.297 |
| COc1cc(C(=O)OCCN2CCN(CCCN3c4ccccc4Sc4ccc(Cl)cc43)CC2)cc(OC)c1OC [metofenazate] | 33.6 | 6.68 |
| CC(C)(C)c1cc(C(C)(C)C)c(NC(=O)c2c[nH]c3ccccc3c2=O)cc1O [Kalydeco] | 102 | 0.513 |
| CC1=CC(=O)NS(=O)(=O)O1 | 66 | -3.7 |
| CC(C)=CCC/C(C)=C/CC/C(C)=C/C=C/C(C)=C/C(=O)O [peretinoin] | 101 | -5.99 |
| CC(=O)Oc1c(C)cc(OCC(O)CNC(C)C)c(C)c1C (stereo not given) [metipranolol] | 113 | -3.36 |
| CC(C)(C)NCC(O)COc1nsnc1N1CCOCC1 (stereo not given) [Blocarden] | 114 | -7.37 |
| C/C=C/C(=O)N(CC)C(CC)C(=O)N(C)C (stereo not given) [crotetamide] | 92.4 | 3.78 |
| Cc1nc(Nc2ncc(C(=O)Nc3c(C)cccc3Cl)s2)cc(N2CCN(CCO)CC2)n1 [dasatinib] | 74.4 | 3.5 |
| c1ccc([C@H]2CN3CCSC3=N2)cc1 | 134 | -0.242 |
| CC(C)(Oc1ccc(Cl)cc1)C(=O)N1CSCC1C(=O)O (stereo not given) [timofibrate] | 80.7 | -8.26 |

No new results follow: an excerpt of the list.

| Compound | mCherry [1] [%] | percent effect [2] [%] |
| --- | --- | --- |
| Cc1nc(Nc2ncc(C(=O)Nc3c(C)cccc3Cl)s2)cc(N2CCN(CCO)CC2)n1 [dasatinib] | 74.4 | 3.5 |
| c1ccc([C@H]2CN3CCSC3=N2)cc1 | 134 | -0.242 |

— the supplement of paper PMC8256030
